Experimental data from the supplement of paper PMC10849652.
The list shows a part of the results. Residues, ends and D or L forms follow the SMILES beside them. *: point of attachment. Cbz = O=C(OCc1ccccc1)*

Amino acid sequences for entries named in this document (tags omitted). A change or cut given only in a name is not applied to a line headed by its entry.
UniProt Q96PM9: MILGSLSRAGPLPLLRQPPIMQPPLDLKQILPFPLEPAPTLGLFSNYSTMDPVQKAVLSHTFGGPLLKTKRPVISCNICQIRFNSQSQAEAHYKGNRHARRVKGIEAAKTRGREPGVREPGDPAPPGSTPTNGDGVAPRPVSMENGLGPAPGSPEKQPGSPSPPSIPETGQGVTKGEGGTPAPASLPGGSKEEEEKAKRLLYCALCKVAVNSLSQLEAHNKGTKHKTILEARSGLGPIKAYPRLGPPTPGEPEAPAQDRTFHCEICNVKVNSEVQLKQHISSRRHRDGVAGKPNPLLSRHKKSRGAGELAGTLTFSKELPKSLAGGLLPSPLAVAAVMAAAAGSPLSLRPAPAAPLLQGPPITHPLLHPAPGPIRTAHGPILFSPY
UniProt Q96IQ9: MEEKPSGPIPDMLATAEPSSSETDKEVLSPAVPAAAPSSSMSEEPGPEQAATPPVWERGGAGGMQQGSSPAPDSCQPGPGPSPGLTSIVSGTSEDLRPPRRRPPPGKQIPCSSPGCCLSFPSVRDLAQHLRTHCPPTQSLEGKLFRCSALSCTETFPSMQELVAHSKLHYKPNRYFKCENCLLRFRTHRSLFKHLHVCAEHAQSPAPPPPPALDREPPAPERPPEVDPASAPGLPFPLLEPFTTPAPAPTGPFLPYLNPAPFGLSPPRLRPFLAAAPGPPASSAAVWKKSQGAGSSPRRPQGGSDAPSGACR

Target: ZNF385A (UniProt Q96PM9)
Assay: log2 fold change, soluble protein after heating vs DMSO (PISA); higher = thermal stabilisation; K562 cells, 10 uM, 30 min; active = over 0.2 and 3.5 SD of the protein, either way, in both replicates (recomputed)
Summary of the method: (§1)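 K562 cells at 2×10^6 cells/mL were treated with 10 μM compound for 30 min. Aliquots were heated for 3 min across 48°C-58°C, pooled, and extracted in PBS with 0.5% NP-40 at 4°C; soluble protein was the supernatant after 21,000xg for 90 min. Soluble protein was quantified by TMTpro 16plex LC-MS/MS with channel sums equalised, and reported as log2 fold change in thermal stability against DMSO controls, with values from duplicates.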

log2 fold change, inactive:
C=CC(=O)N1CCC[C@@H](n2nc(-c3ccc(Oc4ccccc4)cc3)c3c(N)ncnc32)C1 [ibrutinib] 0.19
COc1cc(C(=O)O)ccc1NC(=O)[C@@H]1N[C@@H](CC(C)(C)C)[C@](C#N)(c2ccc(Cl)cc2F)[C@H]1c1cccc(Cl)c1F [idasanutlin] 0.064
CCCc1cc(C)[nH]c(=O)c1CNC(=O)c1cc(-c2ccnc(N3CCN(C)CC3)c2)cc2c1cnn2C(C)C -0.158
CC[C@H](C)n1cc(C)c2c(C(=O)NCc3c(C)cc(C)[nH]c3=O)cc(-c3ccc(N4CCNCC4)nc3)cc21 -0.07
Cn1cc(-c2ccc3nnc(C(F)(F)c4ccc5ncccc5c4)n3n2)cn1 -0.023
Cn1cc(-c2ccc3c(c2)CCN3C(=O)Cc2cccc(C(F)(F)F)c2)c2c(N)ncnc21 -0.06
O=C1c2ccccc2-c2n[nH]c3cccc1c23 0.115
Oc1cc(-c2nc(-c3ccccc3)[nH]c2-c2ccncc2)ccc1Cl 0.036
Cc1ccc(NC(=O)c2cccc(N(C)C)c2)cc1NC(=O)c1ccc(O)cc1 -0.01
CC(C)C[C@@H](C=O)NC(=O)[C@H](CC(C)C)NC(=O)[C@H](CC(C)C)NC(=O)OCc1ccccc1 (Cbz-Leu-Leu-Leu-aldehyde) 0.069
CC(=O)c1cnc2ccc(-c3cc(Cl)c(O)c(Cl)c3)nc2c1N[C@H]1CC[C@H](CN(C)C)CC1 -0.087
O=C(O)c1ccc2c(c1)nc(Nc1cccc(Cl)c1)c1ccncc12 [silmitasertib] 0.282
O=C1NC(=NCc2cccs2)S/C1=C\c1ccc2ncccc2c1 -0.006
COc1cccc2cc(-c3nc([C@H]4CC[C@H](C(=O)O)CC4)n4ncnc(N)c34)[nH]c12 -0.133
CC(C)(C)Cn1c(N)nc2ccc(-c3[nH]c(C(C)(C)C)nc3-c3ccc(F)cc3)nc21 [ralimetinib] 0.162
Cc1ccc(C(=O)N(CCCN)[C@@H](c2nc3cc(Cl)ccc3c(=O)n2Cc2ccccc2)C(C)C)cc1 [ispinesib] -0.044
O=C1NC(=O)/C(=C\c2ccc3nccnc3c2)S1 0.048
Cc1ncc(-c2ccnc(Nc3ccc(S(C)(=O)=O)cc3)n2)n1C(C)C 0.024
FC(F)(F)c1ccc(/C=C/c2nc(COc3ccc(CCCCn4ccnn4)cc3)co2)cc1 [mubritinib] -0.083
NC(=O)c1cnc(N[C@@H]2CCCC[C@@H]2N)nc1Nc1cccc(-n2nccn2)c1 0.087
Cc1ccc(NC(=O)c2ccc(CN3CC[C@H](N(C)C)C3)c(C(F)(F)F)c2)cc1Nc1nccc(-c2cncnc2)n1 [bafetinib] 0.109
CO[C@H]1C[C@@H]2CC[C@@H](C)[C@@](O)(O2)C(=O)C(=O)N2CCCC[C@H]2C(=O)O[C@H]([C@H](C)C[C@@H]2CC[C@H](n3cnnn3)[C@H](OC)C2)CC(=O)[C@H](C)/C=C(\C)[C@@H](O)[C@@H](OC)C(=O)[C@H](C)C[C@H](C)/C=C/C=C/C=C/1C [zotarolimus] 0.055
C[C@@H](N)c1ccc(C(=O)Nc2ccnc3[nH]ccc23)cc1 0.154
Cc1nc(Nc2n[nH]c3c2CN(C(=O)N[C@H](CN(C)C)c2ccccc2)C3(C)C)c2sccc2n1 -0.13
C/C(=N\NC(=O)c1cccc(S(=O)(=O)N2CCOCC2)c1)c1cc(Cl)ccc1O -0.008
NC1(c2ccc(-c3nc4ccn5c(=O)[nH]nc5c4cc3-c3ccccc3)cc2)CCC1 0.034
CCN(CCCOc1ccc2c(Nc3cc(CC(=O)Nc4cccc(F)c4)[nH]n3)ncnc2c1)CCOP(=O)(O)O [barasertib] -0.04
Cc1cn(-c2cc(NC(=O)c3ccc(C)c(Nc4nccc(-c5cccnc5)n4)c3)cc(C(F)(F)F)c2)cn1 [nilotinib] 0.147
COc1cc(Nc2ncc3c(n2)-c2ccc(Cl)cc2C(c2c(F)cccc2OC)=NC3)ccc1C(=O)O [alisertib] -0.159
COc1cc2ncnc(Nc3ccc(F)c(Cl)c3)c2cc1OCCCN1CCOCC1 [gefitinib] -0.236

Target: ZNF414 isoform 2 (UniProt Q96IQ9)
Assay: as above
Summary of the method: as §1

log2 fold change, inactive:
C=CC(=O)N1CCC[C@@H](n2nc(-c3ccc(Oc4ccccc4)cc3)c3c(N)ncnc32)C1 [ibrutinib] -0.167
COc1cc(C(=O)O)ccc1NC(=O)[C@@H]1N[C@@H](CC(C)(C)C)[C@](C#N)(c2ccc(Cl)cc2F)[C@H]1c1cccc(Cl)c1F [idasanutlin] 0.061
CCCc1cc(C)[nH]c(=O)c1CNC(=O)c1cc(-c2ccnc(N3CCN(C)CC3)c2)cc2c1cnn2C(C)C 0.043
Cn1cc(-c2ccc3nnc(C(F)(F)c4ccc5ncccc5c4)n3n2)cn1 -0.174
Cn1cc(-c2ccc3c(c2)CCN3C(=O)Cc2cccc(C(F)(F)F)c2)c2c(N)ncnc21 0.069
O=C1c2ccccc2-c2n[nH]c3cccc1c23 0.013
Oc1cc(-c2nc(-c3ccccc3)[nH]c2-c2ccncc2)ccc1Cl 0.535
Cc1ccc(NC(=O)c2cccc(N(C)C)c2)cc1NC(=O)c1ccc(O)cc1 0.004
CC(C)C[C@@H](C=O)NC(=O)[C@H](CC(C)C)NC(=O)[C@H](CC(C)C)NC(=O)OCc1ccccc1 (Cbz-Leu-Leu-Leu-aldehyde) -0.198
CC(=O)c1cnc2ccc(-c3cc(Cl)c(O)c(Cl)c3)nc2c1N[C@H]1CC[C@H](CN(C)C)CC1 0.08
O=C(O)c1ccc2c(c1)nc(Nc1cccc(Cl)c1)c1ccncc12 [silmitasertib] -0.116
O=C1NC(=NCc2cccs2)S/C1=C\c1ccc2ncccc2c1 -0.001
COc1cccc2cc(-c3nc([C@H]4CC[C@H](C(=O)O)CC4)n4ncnc(N)c34)[nH]c12 0.412
CC(C)(C)Cn1c(N)nc2ccc(-c3[nH]c(C(C)(C)C)nc3-c3ccc(F)cc3)nc21 [ralimetinib] 0.31
Cc1ccc(C(=O)N(CCCN)[C@@H](c2nc3cc(Cl)ccc3c(=O)n2Cc2ccccc2)C(C)C)cc1 [ispinesib] 0.322
O=C1NC(=O)/C(=C\c2ccc3nccnc3c2)S1 -0.049
FC(F)(F)c1ccc(/C=C/c2nc(COc3ccc(CCCCn4ccnn4)cc3)co2)cc1 [mubritinib] 0.102
NC(=O)c1cnc(N[C@@H]2CCCC[C@@H]2N)nc1Nc1cccc(-n2nccn2)c1 -0.191
Cc1ccc(NC(=O)c2ccc(CN3CC[C@H](N(C)C)C3)c(C(F)(F)F)c2)cc1Nc1nccc(-c2cncnc2)n1 [bafetinib] -0.125
CO[C@H]1C[C@@H]2CC[C@@H](C)[C@@](O)(O2)C(=O)C(=O)N2CCCC[C@H]2C(=O)O[C@H]([C@H](C)C[C@@H]2CC[C@H](n3cnnn3)[C@H](OC)C2)CC(=O)[C@H](C)/C=C(\C)[C@@H](O)[C@@H](OC)C(=O)[C@H](C)C[C@H](C)/C=C/C=C/C=C/1C [zotarolimus] 0.173
C[C@@H](N)c1ccc(C(=O)Nc2ccnc3[nH]ccc23)cc1 -0.157
C/C(=N\NC(=O)c1cccc(S(=O)(=O)N2CCOCC2)c1)c1cc(Cl)ccc1O -0.008
NC1(c2ccc(-c3nc4ccn5c(=O)[nH]nc5c4cc3-c3ccccc3)cc2)CCC1 0.06
CCN(CCCOc1ccc2c(Nc3cc(CC(=O)Nc4cccc(F)c4)[nH]n3)ncnc2c1)CCOP(=O)(O)O [barasertib] 0.113
COc1cc(Nc2ncc3c(n2)-c2ccc(Cl)cc2C(c2c(F)cccc2OC)=NC3)ccc1C(=O)O [alisertib] -0.243
